Measurements from patent EP0363224A1, “Treatment of periodontal disease” (BLOCK DRUG COMPANY INC., priority 1988, dated 1990).
At least one structure is not confirmed: it was looked up by name or label, or the drawing left a doubt.

Molecular target: cyclooxygenase
Assay: inhibition of cyclooxygenase conversion of radiolabeled arachidonic acid into prostaglandins in homogenate of inflamed gingival tissue
Assay type: biochemical, humans
Conditions: molar strength required to inhibit 50 percent of the prostaglandin level produced by arachidonic acid alone; 2 hours at 37°C; PGE₂ major product, HPLC

Cc1c(C)c2c(c(C)c1O)CC[C@@](C)(CCC[C@H](C)CCC[C@H](C)CCCC(C)C)O2 [Alpha tochoperol]
IC₅₀: 7.0 x 10⁻⁹ M
